From publication PMC10570038
These are yes or no findings as the source states them, for the method shown. Binding seen in cells or lysates may run through a third protein. Some binding calls cover weakened binding; strength is not graded here.

Experiments:
[1] = target: StrepII-His6-RBPMS-A (full length) (rat); test: pull-down; 2 μM StrepII-His6-RBPMS variant in 60% HeLa NE, 2.2 mM MgCl2, 2.6% PVA, 30°C 15 min; MagStrep 'type3' XT beads; six washes with 150 mM KCl buffer; elution with biotin; immunoblot; only the target purified
[2] = target: recombinant untagged full-length rat RBPMS-A (rat); test: co-sedimentation; Benzonase-treated HeLa NE with buffer, ΔC20 or FL RBPMS (1 μM StrepII-His6-RBPMS-A or tag-free RBPMS-A plus 1 μM His6-RBPMS-A-Alexa 647); 10-60% glycerol, 0-0.15% glutaraldehyde gradient, 100 mM KCl, pH 7.9; SW40 Ti 32 000 rpm 13 h 4°C; fractions dot blotted; only the target purified
[3] = target: StrepII-His6-RBPMS-A-K100E (rat); test: pull-down; 2 μM StrepII-His6-RBPMS variant in 60% HeLa NE, 2.2 mM MgCl2, 2.6% PVA, 30°C 15 min; MagStrep 'type3' XT beads; six washes with 150 mM KCl buffer; elution with biotin; immunoblot; only the target purified
[4] = target: StrepII-His6-RBPMS-A (full length) (rat); test: pull-down; as the StrepII pull-down with immunoblot, but HeLa NE pretreated with 5 U/ml Benzonase at 30°C for 15 min and clarified before RBPMS was added; only the target purified

Binder | binding [1] | binding [2] | binding [3] | binding [4]
RBM14 (protein, UniProt Q96PK6 1-669) MKIFVGNVDGADTTPEELAALFAPYGTVMSCAVMKQFAFVHMRENAGALRAIEALHGHELRPGRALVVEMSRPRPLNTWKIFVGNVSAACTSQELRSLFERRGRVIECDVVKDYAFVHMEKEADAKAAIAQLNGKEVKGKRINVELSTKGQKKGPGLAVQSGDKTKKPGAGDTAFPGTGGFSATFDYQQAFGNSTGGFDGQARQPTPPFFGRDRSPLRRSPPRASYVAPLTAQPATYRAQPSVSLGAAYRAQPSASLGVGYRTQPMTAQAASYRAQPSVSLGAPYRGQLASPSSQSAAASSLGPYGGAQPSASALSSYGGQAAAASSLNSYGAQGSSLASYGNQPSSYGAQAASSYGVRAAASSYNTQGAASSLGSYGAQAASYGAQSAASSLAYGAQAASYNAQPSASYNAQSAPYAAQQAASYSSQPAAYVAQPATAAAYASQPAAYAAQATTPMAGSYGAQPVVQTQLNSYGAQASMGLSGSYGAQSAAAATGSYGAAAAYGAQPSATLAAPYRTQSSASLAASYAAQQHPQAAASYRGQPGNAYDGAGQPSAAYLSMSQGAVANANSTPPPYERTRLSPPRASYDDPYKKAVAMSKRYGSDRRLAELSDYRRLSESQLSFRRSPTKSSLDYRRLPDAHSDYARYSGSYNDYLRAAQMHSGYQRRM | binds | – | – | –
RBFOX2 (protein, UniProt O43251 1-390) MQNEPLTPGYHGFPARDSQGNQEPTTTPDAMVQPFTTIPFPPPPQNGIPTEYGVPHTQDYAGQTGEHNLTLYGSTQAHGEQSSNSPSTQNGSLTTEGGAQTDGQQSQTQSSENSESKSTPKRLHVSNIPFRFRDPDLRQMFGQFGKILDVEIIFNERGSKGFGFVTFENSADADRAREKLHGTVVEGRKIEVNNATARVMTNKKMVTPYANGWKLSPVVGAVYGPELYAASSFQADVSLGNDAAVPLSGRGGINTYIPLISLPLVPGFPYPTAATTAAAFRGAHLRGRGRTVYGAVRAVPPTAIPAYPGVVYQDGFYGADLYGGYAAYRYAQPATATAATAAAAAAAAYSDGYGRVYTADPYHALAPAASYGVGAVASLYRGGYSRFAPY | binds | binds | binds | binds
ESRP2 (protein, UniProt Q9H6T0 1-727) MTPPPPPPPPPGPDPAADPAADPCPWPGSLVVLFGATAGALGRDLGSDETDLILLVWQVVEPRSRQVGTLHKSLVRAEAAALSTQCREASGLSADSLARAEPLDKVLQQFSQLVNGDVALLGGGPYMLCTDGQQLLRQVLHPEASRKNLVLPDMFFSFYDLRREFHMQHPSTCPARDLTVATMAQGLGLETDATEDDFGVWEVKTMVAVILHLLKEPSSQLFSKPEVIKQKYETGPCSDSTVPCPYSSKADVVDSETVVRARGLPWQSSDQDVARFFKGLNVARGGVALCLNAQGRRNGEALIRFVDSEQRDLALQRHKHHMGVRYIEVYKATGEEFVKIAGGTSLEVARFLSREDQVILRLRGLPFSAGPTDVLGFLGPECPVTGGTEGLLFVRHPDGRPTGDAFALFACEELAQAALRRHKGMLGKRYIELFRSTAAEVQQVLNRYASGPLLPTLTAPLLPIPFPLAPGTGRDCVRLRGLPYTATIEDILSFLGEAAADIRPHGVHMVLNQQGRPSGDAFIQMTSAERALAAAQRCHKKVMKERYVEVVPCSTEEMSRVLMGGTLGRSGMSPPPCKLPCLSPPTYTTFQATPTLIPTETAALYPSSALLPAARVPAAPTPVAYYPGPATQLYLNYTAYYPSPPVSPTTVGYLTTPTAALASAPTSVLSQSGALVRMQGVPYTAGMKDLLSVFQAYQLPADDYTSLMPVGDPPRTVLQAPKEWVCL | binds | – | – | –
hnRNPM (protein, UniProt P52272 1-730) MAAGVEAAAEVAATEIKMEEESGAPGVPSGNGAPGPKGEGERPAQNEKRKEKNIKRGGNRFEPYANPTKRYRAFITNIPFDVKWQSLKDLVKEKVGEVTYVELLMDAEGKSRGCAVVEFKMEESMKKAAEVLNKHSLSGRPLKVKEDPDGEHARRAMQKVMATTGGMGMGPGGPGMITIPPSILNNPNIPNEIIHALQAGRLGSTVFVANLDYKVGWKKLKEVFSMAGVVVRADILEDKDGKSRGIGTVTFEQSIEAVQAISMFNGQLLFDRPMHVKMDERALPKGDFFPPERPQQLPHGLGGIGMGLGPGGQPIDANHLNKGIGMGNIGPAGMGMEGIGFGINKMGGMEGPFGGGMENMGRFGSGMNMGRINEILSNALKRGEIIAKQGGGGGGGSVPGIERMGPGIDRLGGAGMERMGAGLGHGMDRVGSEIERMGLVMDRMGSVERMGSGIERMGPLGLDHMASSIERMGQTMERIGSGVERMGAGMGFGLERMAAPIDRVGQTIERMGSGVERMGPAIERMGLSMERMVPAGMGAGLERMGPVMDRMATGLERMGANNLERMGLERMGANSLERMGLERMGANSLERMGPAMGPALGAGIERMGLAMGGGGGASFDRAIEMERGNFGGSFAGSFGGAGGHAPGVARKACQIFVRNLPFDFTWKMLKDKFNECGHVLYADIKMENGKSKGCGVVKFESPEVAERACRMMNGMKLSGREIDVRIDRNA | – | no binding | – | –
